Measurements as given in patent US20090054414A1, “Rufinamide for the Treatment of Post-Traumatic Stress Disorder” (SYNOSIA THERAPEUTICS, priority 2007, published 2009).

Columns and labels:
[1] = tested on: male OF-1 “intruder” mice; assay: Intruder test (social withdrawal of intruder mice); type: in vivo, mouse; details: 1/3/10 mg/kg oral; rectal temperature
Description: Rufinamide, a Na-channel blocker and anti-epileptic agent, and carbamazepine, an anticonvulsant employed to treat bipolar disorder, were given to male OF-1 “intruder” in oral-doses of 1/3/10 mg/kg, 1 hr before the animals were confronted with an individually-housed, aggressive, male OF-1 resident mouse. […] This increase in social investigation (sociotropic effect) was accompanied by a decrease in the frequency and duration of defensive ambivalence probably through competitive inhibition. No signs of motor stimulation were detected.
The Intruder test duplicates a territorial encounter between a territory holder (aggressive male) and a subordinate “intruder” mouse. […] In this test the intruders receive the treatment whereas the residents remain untreated. (Dixon, A. K., Huber, C., Lowe, D. J. Clin. Psychiatry. 55 (9) Suppl B, 4-7 (1994)). For purposes of this study, rufinamide and carbamazepine were given orally to intruder mice 1 hr before being introduced singly to aggressive residents using doses of ⅓ and 10 mg/kg.
Over 60 ethological elements describing the social and non-social behaviour of mice based on the ethogram originally proposed by Grant and Mackintosh (Grant, E. C. Mackintosh, J. H. Behaviour 21: 246-259 (1963) ) and classified according to 9 behavioural categories (Dixon, A. K., Huber, C., Fisch, H. U. Adv. Study. Behaviour. 19: 171-204 (1990)) form the rodent ethogram as used in this test (FIG. 3).

Male OF1/IC mice = assay: modified stress-induced hyperthermia (SIH) test; type: in vivo, mouse
Description: Rufinamide was tested in the modified stress-induced model of anxiety. The stress-induced hyperthermia test in mice is a paradigm developed several years ago to model the expression of autonomic hyperactivity in anxiety (Lecci A, Borsini F, Volterra G, Meli A. (1990) Pharmacological validation of a novel model of anticipatory anxiety in mice. Psychopharmacology; 101:255-61.; Spooren W P, Schoeffter P, Gasparini F, Kuhn R, Gentsch C. (2002) Pharmacological and endocrinological characterisation of stress-induced hyperthermia in singly housed mice using classical and candidate anxiolytics (LY314582, MPEP and NKP608). Eur J Pharmacol; 435:161-70.;Zethof T J J, van der Heyden J A M, Tolboom J B M, Olivier B (1994) Stress-induced hyperthermia in mice: a methodological study. Phys. Behav. 55:109-115.). […] Pharmacol Biochem Behav 72:179-188.
Male OF1/IC mice (MA205 Tiger code) were obtained several days prior to behavioural testing from Iffa Credo (L'Arbresle, France; 18-20 g) and housed in groups of 15 animals per cage (macrolon cages 42H26H15 cm, Type 4). The animals were individually housed (macrolon cage: 26H21H14 cm, Type 2) 24 h before testing. The day preceding the experiment, all cages were transferred to the testing room—and background noise (radio) was used during the light cycle. Both the animal room and the laboratory were temperature controlled and equipped with artificial illumination (L12:D12; lights on 06:00). Mice always had ad libitum access to water and food (Ecosan, Eberle Nafag A G, Gossau, Schweiz).
The test procedure for the modified stress-induced hyperthermia was adapted from van der Heyden et al. (1997). Rectal temperature was measured in each mouse twice, i.e. at t=0 min (T1) and t=+15 min (T2). The difference in temperature (T2-T1) was considered to reflect the stress-induced hyperthermia (SIH). […] In addition, a comparison between T1 in vehicle-treated mice and in animals treated with a given dose of a test-compound was used, to measure whether a test-compound affected body temperature alone.
Rectal temperature was measured to the nearest 0.1° C. by an ELLAB instruments (Copenhagen, Denmark) thermometer Model DM 852 by inserting a lubricated thermistor probe model PRA-22002-A (ELLAB, Copenhagen, Denmark) (2.2 mm diameter) 20 mm into the rectum; the mouse was hand held at the base of the tail during this determination and the thermistor probe was left in place for 15 s.
All drugs were made up fresh and dissolved in vehicle (0.5% methylcellulose) and administered per os (p.o.) in a volume of 10 ml/kg.
All data was analysed using a one-way analysis of variance (ANOVA) followed where appropriate by Dunnett test of multiple comparisons. The level of significance was set at p<0.05.

Row | Compound | basal body temperature of intruder mice [1] | post-encounter hyperthermia of intruder mice [1] | baseline body temperature T1 (Male OF1/IC mice; first experiment, rufinamide 3-100 mg/kg p.o., CDZ 10 mg/kg p.o., pair-wise comparisons) | basal temperature T1 (Male OF1/IC mice; pooled data of all 3 experiments, all treatment groups vs control) | basal body temperature T1 (Male OF1/IC mice; second experiment, rufinamide 0.3-300 mg/kg p.o., CDZ 10 mg/kg p.o.) | basal body temperature T1 (Male OF1/IC mice; third experiment, rufinamide 25-50-100-200 mg/kg p.o.)
1 | NC(=O)N1c2ccccc2C=Cc2ccccc21 [carbamazepine] | did not alter | nor alter |  |  |  | 
2 | NC(=O)c1cn(Cc2c(F)cccc2F)nn1 [rufinamide, 1-(2,6-difluorobenzyl)-1H-1,2,3-triazole-4-carboxamide] | did not alter | nor alter | neither rufinamide nor the positive control CDZ significantly altered | no treatment group was significantly different from control animals | Neither rufinamide nor CDZ significantly modified | did not modify
